Laboratory results taken from PubChem BioAssay AID504834 (National Center for Advancing Translational Sciences (NCATS), 2011).
Values joined by “and” are separate entries in the source; they are usually repeats but may differ in a detail not shown here. Equal entries are not always repeated. About 22,000 (6.9%) of roughly 320,000 compounds were called active. The shares of active, inactive and inconclusive entries below differ from those in the screen. Calls come from the whole dose curve; as a rule, active = well fitted inhibition curve with a large enough effect; inconclusive = small, poorly fitted or top-dose-only effect, or another doubt; inactive = no such curve, though single readings can be large or run the other way. Potencies beside an inconclusive call are fits to weak or partial responses and may not hold up.

Experiment: Primary qHTS for delayed death inhibitors of the malarial parasite plastid, 96 hour incubation
Details: P. falciparum luciferase reporter growth; series mostly up to 28.7 µM
Procedure, shortened: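 Two parasite generations (96 h, 37 C, 5% CO2) of compound exposure in infected erythrocytes (0.05% parasitemia, 2% hematocrit). Luciferase-reporter P. falciparum; decreased luminescence indicates inhibited growth, aimed at apicoplast-acting delayed death.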
Potency is the fitted concentration of half-maximal effect.

Structure (SMILES)	Potency
Cc1c(C(=O)n2cnc3ccccc32)cccc1[N+](=O)[O-]	inconclusive: 5.22 µM [inhibitor, partial curve]
CC(=O)Nc1ccc(OCC(O)CN2C(C)(C)CC(O)CC2(C)C)cc1 (stereo not drawn)	inactive
O=C(Nc1cccc(S(=O)(=O)N2CCCCC2)c1)c1ccc2ccccc2n1	inactive
CCN=C1S/C(=C/c2ccc(-c3ccc(F)cc3)o2)C(=O)N1CC	inactive
Cc1cc(Br)ccc1NC(=O)CN(C)C(=O)c1cc([N+](=O)[O-])ccc1N1CCOCC1	inconclusive: 13.1 µM [inhibitor, single point]
Cc1cc(S(=O)(=O)NC2CCCCC2)ccc1OCC(=O)NCc1cccnc1	inconclusive: 13.1 µM [inhibitor, single point]
CC(C)OCCCN(C)C1CCN(S(=O)(=O)c2ccc(-c3cc(C(F)(F)F)no3)s2)CC1	inconclusive: 18.5 µM [inhibitor, single point]
COc1ccc(N2C(=O)C3CCCN3C2=S)cc1 (stereo not drawn)	inconclusive: 18.5 µM [inhibitor, single point]
Brc1ccc2[nH]c3c(NCc4ccccn4)ncnc3c2c1	inconclusive: 9.28 µM [inhibitor, partial curve, poor fit]
COc1ccc([C@H]2CC(=O)C=C(c3ccc(OC)nc3)C2)cc1	inconclusive: 10.4 µM [inhibitor, single point]
CC(C)=NNC(=O)c1c(O)c2ccccc2[nH]c1=O	inactive
CC(C)Oc1ccc(S(=O)(=O)N2CCCCC2)cc1NC(=O)CN1C(=O)NC(C)(c2ccccc2)C1=O (stereo not drawn)	inconclusive: 5.22 µM [inhibitor, partial curve]
CN(c1ccccc1)S(=O)(=O)c1cccc(NC(=O)c2ccncc2)c1	inconclusive: 10.4 µM [inhibitor, partial curve, poor fit]
Cc1nn2cc(-c3cccc(Cl)c3)cnc2c1Cl	inactive
COC(=O)c1cn(C(=O)c2cccc(C)c2)c2ccccc12	inconclusive: 10.4 µM [inhibitor, single point]
O=C(NCC1CCCO1)c1cc(-c2ccc(F)cc2)no1 (stereo not drawn)	inconclusive: 18.5 µM [inhibitor, single point]
CC(C)CN(C[C@@H](O)[C@H](Cc1ccccc1)NC(=O)O[C@H]1CO[C@H]2OCC[C@H]21)S(=O)(=O)c1ccc(N)cc1	inconclusive: 6.75 µM [inhibitor, partial curve, poor fit]
CCOc1ccc(N(C)Cc2cc(=O)oc3ccc(OCC)cc23)cc1	inactive
O=C(CN(c1cccc(Cl)c1)S(=O)(=O)c1ccccc1)NN=C1CCCC1	inactive
CCCCC(CC)C(=O)Nc1ccccc1C#N (stereo not drawn)	inconclusive: 18.5 µM [inhibitor, single point]
O=C(Nc1cccnc1)Nc1cccc(F)c1	inconclusive: 13.1 µM [inhibitor, single point]
c1ccc(Cn2nnnc2CN2CCN(c3ncccn3)CC2)cc1	active: 4.65 µM

Structure (SMILES)	Potency
Cc1cc(N2CCOCC2)nc(N2CCOCC2)n1	inactive and inconclusive: 10.4 µM [inhibitor, partial curve, poor fit]
CC1CCCCN1S(=O)(=O)c1ccc(N(C(=O)c2cnccn2)C(C(=O)NC2CCCCC2)c2cccs2)cc1 (stereo not drawn)	active: 8.28 µM
C=CCOC(=O)c1[nH]c2c(c1C)C(=O)CC(c1ccco1)C2 (stereo not drawn)	inactive
CN(C(=O)c1cc([N+](=O)[O-])ccc1NCc1cccnc1)c1ccccc1	inconclusive: 10.4 µM [inhibitor, partial curve, poor fit]
O=C(NCc1ccc(Cl)cc1)c1ccc(CSc2nc3ccncc3[nH]2)cc1	inconclusive: 10.4 µM [inhibitor, single point]
CCN(CC)CC(=O)N1CCCC(N2CCN(c3cccc(C(F)(F)F)c3)CC2)C1 (stereo not drawn)	active: 9.28 µM
Cc1cc(C(=O)CCC(=O)NCc2ccccc2F)c(C)s1	inactive
Cc1ccc(NC(=O)O/N=C2\CCCCC2c2ccc([N+](=O)[O-])cc2[N+](=O)[O-])cc1 (stereo not drawn)	inconclusive: 14.7 µM [inhibitor, partial curve, poor fit]
COc1ccccc1NC(=O)Cn1c(CCC(=O)O)ccc1-c1ccc(C)cc1	inactive
O=c1nc(Nc2ccc(Br)cc2)sc2ccc([N+](=O)[O-])cc12	inactive
Cc1ccc(C(=O)COC(=O)c2ccccc2N2C(=O)C3C4CCC(C4)C3C2=O)cc1C (stereo not drawn)	inconclusive: 0.522 µM [inhibitor, full curve, poor fit]
Cc1cc(C)c(OCCCCN2CCNCC2)c(C)c1	active: 3.29 µM
CN1/C(=C\C(=O)Nc2cccc(Cl)c2)C(C)(C)c2ccccc21	inconclusive: 4.65 µM [inhibitor, partial curve]
COc1ccc(Cn2c(O)c(/C=C3/C=CC=N3)c(=O)[nH]c2=O)cc1	inactive
Cc1ccc(C(=O)N/C(=C/c2ccc(-c3cc(C(F)(F)F)ccc3Cl)o2)C(=O)NCc2cccnc2)cc1	inconclusive: 5.22 µM [inhibitor, partial curve, poor fit]
Cc1ccc(C2C(=O)N(C3CCC(C)CC3)CC(=O)N2C2CCCC2)cc1 (stereo not drawn)	inconclusive: 14.7 µM [inhibitor, partial curve, poor fit]
CCOC(=O)C1(Cc2cccc(OC)c2)CCN(Cc2cnc(SC)nc2)CC1	inconclusive: 9.28 µM [inhibitor, single point]
O=C(CN(c1ccccc1)S(=O)(=O)c1ccccc1[N+](=O)[O-])Nc1cccnc1	inconclusive: 8.28 µM [inhibitor, partial curve, poor fit]
COc1ccccc1N1CCN(C(=O)COc2ccc(C)cc2Br)CC1	inconclusive: 18.5 µM [inhibitor, single point]
Cc1cc2nc3c(=O)[nH]c(=O)nc-3n(CC(O)C(O)C(O)COP(=O)(O)O)c2cc1C (stereo not drawn)	inconclusive: 12 µM [inhibitor, partial curve, poor fit]
CC(=O)c1cccc(NC(=O)NCCc2ccc(Cl)cc2)c1	inactive

Shown with bars between the fields: entries from further up.
Structure (SMILES) | Potency
Cc1cc(N2CCOCC2)nc(N2CCOCC2)n1 | inactive and inconclusive: 10.4 µM [inhibitor, partial curve, poor fit]
CN(C(=O)c1cc([N+](=O)[O-])ccc1NCc1cccnc1)c1ccccc1 | inconclusive: 10.4 µM [inhibitor, partial curve, poor fit]
Cc1ccc(NC(=O)O/N=C2\CCCCC2c2ccc([N+](=O)[O-])cc2[N+](=O)[O-])cc1 (stereo not drawn) | inconclusive: 14.7 µM [inhibitor, partial curve, poor fit]
COc1ccccc1NC(=O)Cn1c(CCC(=O)O)ccc1-c1ccc(C)cc1 | inactive
O=c1nc(Nc2ccc(Br)cc2)sc2ccc([N+](=O)[O-])cc12 | inactive
Cc1cc(C)c(OCCCCN2CCNCC2)c(C)c1 | active: 3.29 µM
COc1ccc(Cn2c(O)c(/C=C3/C=CC=N3)c(=O)[nH]c2=O)cc1 | inactive
Cc1ccc(C(=O)N/C(=C/c2ccc(-c3cc(C(F)(F)F)ccc3Cl)o2)C(=O)NCc2cccnc2)cc1 | inconclusive: 5.22 µM [inhibitor, partial curve, poor fit]
Cc1ccc(C2C(=O)N(C3CCC(C)CC3)CC(=O)N2C2CCCC2)cc1 (stereo not drawn) | inconclusive: 14.7 µM [inhibitor, partial curve, poor fit]
COc1ccccc1N1CCN(C(=O)COc2ccc(C)cc2Br)CC1 | inconclusive: 18.5 µM [inhibitor, single point]
Cc1cc2nc3c(=O)[nH]c(=O)nc-3n(CC(O)C(O)C(O)COP(=O)(O)O)c2cc1C (stereo not drawn) | inconclusive: 12 µM [inhibitor, partial curve, poor fit]
